Source: paper PMC12905490, “Identification and functional characterization of two CXCL17 paralogs from zebrafish” (Biochemical Journal, 2026)
No constants are given. Whether binding was seen depends on the method and setting. Binding seen in cells or lysates may run through a third protein. Some entries that bind do so weakly or less than the wild type. For some assays here: Sequences can lack the tags named with a protein. Each block holds one molecule with its values, some of them ahead of it.

By UniProt entry, the sequences of proteins in these tests, tags left out.
UniProt P32121: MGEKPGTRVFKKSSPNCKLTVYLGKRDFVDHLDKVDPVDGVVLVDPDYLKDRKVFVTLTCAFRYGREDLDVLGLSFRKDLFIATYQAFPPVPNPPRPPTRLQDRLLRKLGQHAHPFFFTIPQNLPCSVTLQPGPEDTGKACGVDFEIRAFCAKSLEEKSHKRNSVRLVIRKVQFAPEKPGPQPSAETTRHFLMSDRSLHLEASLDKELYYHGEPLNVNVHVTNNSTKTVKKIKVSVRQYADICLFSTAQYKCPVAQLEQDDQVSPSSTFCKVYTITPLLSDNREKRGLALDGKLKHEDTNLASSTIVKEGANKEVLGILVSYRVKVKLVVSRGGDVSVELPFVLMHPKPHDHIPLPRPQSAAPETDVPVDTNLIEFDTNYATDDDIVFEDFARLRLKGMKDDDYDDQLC

Experiments:
[1] = molecular target: Dr-GPR25-LgBiT (zebrafish (Danio rerio)); experiment: split reporter; NanoBiT-based β-arrestin recruitment in living HEK293T cells coexpressing Dr-GPR25-LgBiT and SmBiT-ARRB2; bioluminescence after addition of recombinant zebrafish CXCL17 or CXCL17-like; serum-free DMEM plus 1% BSA
[2] = molecular target: sLgBiT-Dr-GPR25 (zebrafish (Danio rerio)); experiment: split reporter; NanoBiT-based competition binding: constant 6 × His-SmBiT-Dr-CXCL17-like tracer and varied competitors on living HEK293T cells expressing sLgBiT-Dr-GPR25; serum-free DMEM, 0.1% BSA, 0.01% Tween-20, room temperature ~1 h; only the binder purified

binding [1]: binds
Molecule: SmBiT-ARRB2 (from UniProt P32121 1-409)

binding [2]: no binding
B1: 6 × His-Dr-[desC3]CXCL17 (domain or fragment, UniProt B0S594 26-106)
chain: RPQEGKSDKSAEVKGHAMPRKCNCQVRGTALDRNCVCEMPHKSRPTLNPEQKNMCLKKKIKTFRKCLQFMGANKKIAKGAS
